From publication PMC6914705
These are yes or no findings as the source states them, for the method shown. In cells and extracts the contact can be indirect. Some binding calls cover weakened binding; strength is not graded here.

Target: Cullin-1 (HEK 293 cells) (human (endogenous in HEK 293)) (UniProt Q13616)
Test: co-IP; HEK 293 cells transfected with pcDNA3.1(+)steA or empty plasmid (36 h), TNFα for 30 min, whole-cell lysates immunoprecipitated with anti-Cullin-1 antibody, HA-tagged SteA detected with anti-HA antibody

HA-tagged SteA (from UniProt Q8ZPD7 1-210)
binding: binds
